Measured values: US20220401428A1, “Method for Treatment of Alzheimer's Disease” (University of Kentucky Research Foundation, priority 2019, published 2022)

Test system: AD rats
Assay: Chronic intravenous infusion of aggregated human amylin in AD rats
Format: in vivo, rat

human amylin
amylin-positive neurons in the brain (AD rats intravenously infused with human amylin): Patchy areas of amylin-positive neurons were found | amylin and hypoxia markers in the brain vasculature (AD rats, 60 μg/kg intravenously every 3rd day for 2 months, vs AD control rats): accumulated amylin and hypoxia markers in the brain vasculature
